Source: patent US20240238263A1, “USE OF PYRIDONE DERIVATIVE CONTAINING HETEROATOM CYCLOBUTANE SUBSTITUENT” (GUANGZHOU JOYO PHARMATECH CO., LTD, priority 2021, published 2024)

System: diabetic rats
Assay: Fasting blood glucose monitoring in STZ-diabetic rats with dorsal skin wound, topical administration
Assay type: in vivo, Wistar rats
Conditions: mean±S.E.M.
Protocol: In this study, 50 STZ-diabetic rats were used to simulate Type 1 diabetes, with an additional 8 normal rats serving as the control group (normal blank gel control group (without STZ)). The method for modeling the STZ-diabetic rat is as follows: Male Wistar rats were weighed and then intraperitoneally injected with Streptozotocin (STZ, freshly prepared, dissolved in 0.1 M citrate buffer (pH 4.5)) at a dosage of 80 mg/kg. STZ was intraperitoneally injected twice in total, with a 5-day interval between injections. Three days after the second STZ injection, rats with fasting blood glucose levels greater than 250 mg/dl were defined as diabetic model rats. Studies on skin wound healing could be conducted from 1 to 8 weeks after the successful establishment of the diabetic rat model. • 2.
All experimental groups were topically administered. Before administering the medication, wounds were rinsed with physiological saline and any residual moisture was absorbed with a sterile cotton swab. Then, the medication was applied. For the GeneTime group, the solution was evenly applied to the wound and surrounding skin, with the dressing changed twice a day. For the other groups, the gel samples were applied from the periphery toward the center, focusing first on the edges of the lesion before covering inward, with the dressing changed twice a day. Medication was applied immediately after the wound model was created, and each group was continuously administered for 18 days. For specific administration information, see Table 2. • 5. Efficacy assessment • 1) Blood glucose monitoring: Blood samples were obtained from all animals via tail vein sampling, and fasting blood glucose levels were measured on days 0/9/18 using a glucometer. • 2) Evaluation of wound closure:
Experimental data were expressed as the mean±standard error of the mean (mean±S.E.M.). Statistical analyses were conducted using appropriate methods in software such as Graphpad Prism or SPSS. A p-value of less than 0.05 is considered to indicate a significant difference. • 7. Results • 1) Fasting blood glucose

CC1(c2ccc(=O)n(-c3ccsc3)c2)COC1 [compound I]
Fasting blood glucose (0.3% compound I gel, 50 mg topical twice daily, Day 0 (baseline)): 431.64 ± 20.81 mg/dL
Fasting blood glucose (0.3% compound I gel, 50 mg topical twice daily, Day 9): 449.64 ± 7.22 mg/dL
Fasting blood glucose (0.3% compound I gel, 50 mg topical twice daily, Day 18): 433.62 ± 5.81 mg/dL
Fasting blood glucose (1% compound I gel, topical twice daily, Day 0 (baseline)): 432.9 ± 9.21 mg/dL
Fasting blood glucose (1% compound I gel, topical twice daily, Day 9): 447.3 ± 10.77 mg/dL
Fasting blood glucose (1% compound I gel, topical twice daily, Day 18): 474.3 ± 7.32 mg/dL
Fasting blood glucose (3% compound I gel, topical twice daily, Day 0 (baseline)): 418.86 ± 12.33 mg/dL
Fasting blood glucose (3% compound I gel, topical twice daily, Day 9): 428.22 ± 13.68 mg/dL
Fasting blood glucose (3% compound I gel, topical twice daily, Day 18): 465.66 ± 12.26 mg/dL
